B1: ARS-interacting multifunctional protein 1 (AIMP1/p43), endogenous (protein, UniProt Q12904 1-312)
chain: MANNDAVLKRLEQKGAEADQIIEYLKQQVSLLKEKAILQATLREEKKLRVENAKLKKEIEELKQELIQAEIQNGVKQIPFPSGTPLHANSMVSENVIQSTAVTTVSSGTKEQIKGGTGDEKKAKEKIEKKGEKKEKKQQSIAGSADSKPIDVSRLDLRIGCIITARKHPDADSLYVEEVDVGEIAPRTVVSGLVNHVPLEQMQNRMVILLCNLKPAKMRGVLSQAMVMCASSPEKIEILAPPNGSVPGDRITFDAFPGEPDKELNPKKKIWEQIQPDLHTNDECVATYKGVPFEVKGKGVCRAQTMSNSGIK
B2: ARS-interacting multifunctional protein 2 (AIMP2/p38), endogenous (protein, UniProt Q13155 1-320)
chain: MPMYQVKPYHGGGAPLRVELPTCMYRLPNVHGRSYGPAPGAGHVQEESNLSLQALESRQDDILKRLYELKAAVDGLSKMIQTPDADLDVTNIIQADEPTTLTTNALDLNSVLGKDYGALKDIVINANPASPPLSLLVLHRLLCEHFRVLSTVHTHSSVKSVPENLLKCFGEQNKKQPRQDYQLGFTLIWKNVPKTQMKFSIQTMCPIEGEGNIARFLFSLFGQKHNAVNATLIDSWVDIAIFQLKEGSSKEKAAVFRSMNSALGKSPWLAGNELTVADVVLWSVLQQIGGCSVTVPANVQRWMRSCENLAPFNTALKLLK
B3: isoleucyl-tRNA synthetase (IARS), endogenous (enzyme, UniProt P41252 1-1262)
chain: MLQQVPENINFPAEEEKILEFWTEFNCFQECLKQSKHKPKFTFYDGPPFATGLPHYGHILAGTIKDIVTRYAHQSGFHVDRRFGWDCHGLPVEYEIDKTLGIRGPEDVAKMGITEYNNQCRAIVMRYSAEWKSTVSRLGRWIDFDNDYKTLYPQFMESVWWVFKQLYDKGLVYRGVKVMPFSTACNTPLSNFESHQNYKDVQDPSVFVTFPLEEDETVSLVAWTTTPWTLPSNLAVCVNPEMQYVKIKDVARGRLLILMEARLSALYKLESDYEILERFPGAYLKGKKYRPLFDYFLKCKENGAFTVLVDNYVKEEEGTGVVHQAPYFGAEDYRVCMDFNIIRKDSLPVCPVDASGCFTTEVTDFAGQYVKDADKSIIRTLKEQGRLLVATTFTHSYPFCWRSDTPLIYKAVPSWFVRVENMVDQLLRNNDLCYWVPELVREKRFGNWLKDARDWTISRNRYWGTPIPLWVSDDFEEVVCIGSVAELEELSGAKISDLHRESVDHLTIPSRCGKGSLHRISEVFDCWFESGSMPYAQVHYPFENKREFEDAFPADFIAEGIDQTRGWFYTLLVLATALFGQPPFKNVIVNGLVLASDGQKMSKRKKNYPDPVSIIQKYGADALRLYLINSPVVRAENLRFKEEGVRDVLKDVLLPWYNAYRFLIQNVLRLQKEEEIEFLYNENTVRESPNITDRWILSFMQSLIGFFETEMAAYRLYTVVPRLVKFVDILTNWYVRMNRRRLKGENGMEDCVMALETLFSVLLSLCRLMAPYTPFLTELMYQNLKVLIDPVSVQDKDTLSIHYLMLPRVREELIDKKTESAVSQMQSVIELGRVIRDRKTIPIKYPLKEIVVIHQDPEALKDIKSLEKYIIEELNVRKVTLSTDKNKYGIRLRAEPDHMVLGKRLKGAFKAVMTSIKQLSSEELEQFQKTGTIVVEGHELHDEDIRLMYTFDQATGGTAQFEAHSDAQALVLLDVTPDQSMVDEGMAREVINRIQKLRKKCNLVPTDEITVYYKAKSEGTYLNSVIESHTEFIFTTIKAPLKPYPVSPSDKVLIQEKTQLKGSELEITLTRGSSLPGPACAYVNLNICANGSEQGGVLLLENPKGDNRLDLLKLKSVVTSIFGVKNTELAVFHDETEIQNQTDLLSLSGKTLCVTAGSAPSLINSSSTLLCQYINLQLLNAKPQECLMGTVGTLLLENPLGQNGLTHQGLLYEAAKVFGLRSRKLKLFLNETQTQEITEDIPVKTLNMKTVYVSVLPTTADF
B4: glutaminyl-tRNA synthetase (QARS), endogenous (enzyme, UniProt P47897 1-775)
chain: MAALDSLSLFTSLGLSEQKARETLKNSALSAQLREAATQAQQTLGSTIDKATGILLYGLASRLRDTRRLSFLVSYIASKKIHTEPQLSAALEYVRSHPLDPIDTVDFERECGVGVIVTPEQIEEAVEAAINRHRPQLLVERYHFNMGLLMGEARAVLKWADGKMIKNEVDMQVLHLLGPKLEADLEKKFKVAKARLEETDRRTAKDVVENGETADQTLSLMEQLRGEALKFHKPGENYKTPGYVVTPHTMNLLKQHLEITGGQVRTRFPPEPNGILHIGHAKAINFNFGYAKANNGICFLRFDDTNPEKEEAKFFTAICDMVAWLGYTPYKVTYASDYFDQLYAWAVELIRRGLAYVCHQRGEELKGHNTLPSPWRDRPMEESLLLFEAMRKGKFSEGEATLRMKLVMEDGKMDPVAYRVKYTPHHRTGDKWCIYPTYDYTHCLCDSIEHITHSLCTKEFQARRSSYFWLCNALDVYCPVQWEYGRLNLHYAVVSKRKILQLVATGAVRDWDDPRLFTLTALRRRGFPPEAINNFCARVGVTVAQTTMEPHLLEACVRDVLNDTAPRAMAVLESLRVIITNFPAAKSLDIQVPNFPADETKGFHQVPFAPIVFIERTDFKEEPEPGFKRLAWGQPVGLRHTGYVIELQHVVKGPSGCVESLEVTCRRADAGEKPKAFIHWVSQPLMCEVRLYERLFQHKNPEDPTEVPGGFLSDLNLASLHVVDAALVDCSVALAKPFDKFQFERLGYFSVDPDSHQGKLVFNRTVTLKEDPGKV
B5: methionyl-tRNA synthetase (MARS), endogenous (enzyme, UniProt P56192 1-900)
chain: MRLFVSDGVPGCLPVLAAAGRARGRAEVLISTVGPEDCVVPFLTRPKVPVLQLDSGNYLFSTSAICRYFFLLSGWEQDDLTNQWLEWEATELQPALSAALYYLVVQGKKGEDVLGSVRRALTHIDHSLSRQNCPFLAGETESLADIVLWGALYPLLQDPAYLPEELSALHSWFQTLSTQEPCQRAAETVLKQQGVLALRPYLQKQPQPSPAEGRAVTNEPEEEELATLSEEEIAMAVTAWEKGLESLPPLRPQQNPVLPVAGERNVLITSALPYVNNVPHLGNIIGCVLSADVFARYSRLRQWNTLYLCGTDEYGTATETKALEEGLTPQEICDKYHIIHADIYRWFNISFDIFGRTTTPQQTKITQDIFQQLLKRGFVLQDTVEQLRCEHCARFLADRFVEGVCPFCGYEEARGDQCDKCGKLINAVELKKPQCKVCRSCPVVQSSQHLFLDLPKLEKRLEEWLGRTLPGSDWTPNAQFITRSWLRDGLKPRCITRDLKWGTPVPLEGFEDKVFYVWFDATIGYLSITANYTDQWERWWKNPEQVDLYQFMAKDNVPFHSLVFPCSALGAEDNYTLVSHLIATEYLNYEDGKFSKSRGVGVFGDMAQDTGIPADIWRFYLLYIRPEGQDSAFSWTDLLLKNNSELLNNLGNFINRAGMFVSKFFGGYVPEMVLTPDDQRLLAHVTLELQHYHQLLEKVRIRDALRSILTISRHGNQYIQVNEPWKRIKGSEADRQRAGTVTGLAVNIAALLSVMLQPYMPTVSATIQAQLQLPPPACSILLTNFLCTLPAGHQIGTVSPLFQKLENDQIESLRQRFGGGQAKTSPKPAVVETVTTAKPQQIQALMDEVTKQGNIVRELKAQKADKNEVAAEVAKLLDLKKQLAVAEGKPPEAPKGKKKK

Amino acid sequences for entries named in this document (tags omitted).
UniProt Q9P2J5: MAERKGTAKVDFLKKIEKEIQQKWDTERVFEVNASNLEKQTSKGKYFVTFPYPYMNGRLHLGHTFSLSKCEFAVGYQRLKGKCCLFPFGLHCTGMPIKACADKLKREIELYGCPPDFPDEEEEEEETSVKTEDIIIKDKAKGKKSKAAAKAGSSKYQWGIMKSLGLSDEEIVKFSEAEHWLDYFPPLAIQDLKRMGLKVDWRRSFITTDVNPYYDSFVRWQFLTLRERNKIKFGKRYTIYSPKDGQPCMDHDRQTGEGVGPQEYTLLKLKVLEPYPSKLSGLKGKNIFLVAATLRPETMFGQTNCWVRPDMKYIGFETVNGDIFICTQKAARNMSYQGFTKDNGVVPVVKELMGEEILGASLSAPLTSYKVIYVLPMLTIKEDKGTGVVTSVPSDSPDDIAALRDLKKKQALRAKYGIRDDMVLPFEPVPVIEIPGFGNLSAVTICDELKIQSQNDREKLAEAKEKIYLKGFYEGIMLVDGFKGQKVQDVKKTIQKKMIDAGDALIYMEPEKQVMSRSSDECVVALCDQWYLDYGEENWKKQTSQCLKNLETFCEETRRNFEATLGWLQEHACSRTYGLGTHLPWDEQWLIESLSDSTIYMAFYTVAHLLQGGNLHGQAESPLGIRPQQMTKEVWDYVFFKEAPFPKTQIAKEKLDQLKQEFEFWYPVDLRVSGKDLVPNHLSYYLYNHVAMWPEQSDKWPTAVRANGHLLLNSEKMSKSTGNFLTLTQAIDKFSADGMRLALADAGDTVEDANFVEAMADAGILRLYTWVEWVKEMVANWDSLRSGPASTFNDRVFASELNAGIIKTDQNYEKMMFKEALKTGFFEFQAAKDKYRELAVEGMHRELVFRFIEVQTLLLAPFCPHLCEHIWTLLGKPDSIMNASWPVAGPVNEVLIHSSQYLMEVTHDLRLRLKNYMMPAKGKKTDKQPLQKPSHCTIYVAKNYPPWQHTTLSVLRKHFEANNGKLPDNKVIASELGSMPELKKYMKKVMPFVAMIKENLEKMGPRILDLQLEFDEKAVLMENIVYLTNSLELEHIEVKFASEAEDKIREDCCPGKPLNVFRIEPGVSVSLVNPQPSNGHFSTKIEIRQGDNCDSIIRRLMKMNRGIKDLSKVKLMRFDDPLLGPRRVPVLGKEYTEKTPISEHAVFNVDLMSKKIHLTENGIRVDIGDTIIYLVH

Results are given in words; binding and its absence hold for the method and conditions named. In cells and extracts the contact can be indirect. Here binding means that the protein was enriched with, or labelled near, the bait; the list need not be complete.

The assay deals with FLAG-tagged HIV-1 MA (HIV-1) (UniProt P12493). As to the kind of experiment: affinity purification with mass spectrometry.
“lysyl-tRNA synthetase (LysRS, KARS), endogenous (from UniProt Q15046 1-597) (enzyme)”: the binding entry was “binds”.
Consider “leucyl-tRNA synthetase (LARS), endogenous (from UniProt Q9P2J5 1-1176) (enzyme)”, for which the binding result is “binds”.
B1: the binding entry was “binds”.
Regarding B2, the binding result is given as “binds”.
Turning to B3, the binding entry is reported as “binds”.
As to B4, the binding result is “binds”.
For B5, the binding entry is listed as “binds”.

These data come from publication PMC9967848.
